# Test results published in PubChem BioAssay AID493014 (National Center for Advancing Translational Sciences (NCATS), 2011).
# The list shows a part of the results. These are further read-outs of the screen, such as a control signal, another cell line or another target. No call is given for them. Compounds called inactive in the main read-out are mostly missing here. Potencies come from curve fits of mixed quality, noted in brackets.
# Experiment: qHTS Assay to Find Inhibitors of Chronic Active B-Cell Receptor Signaling
# Details: ABC-DLBCL IkBa-CBG/CBR reporter, luminescence ratio (green luciferase fused to IkBa over red control in TMD8 lymphoma cells), 4 h
# Method in brief: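 Doxycycline induced both beetle luciferases in TMD8 lymphoma cells; IKK-driven degradation limits the IkappaBalpha-fused green signal, while red luminescence normalises for cell number and nonspecific effects. Compounds tested up to 46 uM, 4 hrs.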
# [1] = measured here: CBR red luminescence, cell number
# [2] = measured here: IkBa-CBG green luminescence
Compound,AC50 [1],AC50 [2]
O=C(Nc1ccc(N2CCOCC2)cc1)c1cccnc1,"14.6 µM [falling, partial curve, poor fit]",–
COc1cc2c(cc1OC)-c1cc(NC3CCCCC3)nc(=O)n1CC2,–,"14.1 µM [falling, partial curve]"
COc1ccc(COC(=O)c2sc3nc4n(c(=O)c3c2C)CCC4)cc1,"5.8 µM [rising, partial curve]",–
O=C(N/N=C/c1cc(Br)cs1)c1ccc2c(c1)OCCO2,"7.08 µM [falling, full curve, poor fit]",–
Cc1cccc(-n2ncc3c(NC4CCCCC4)ncnc32)c1,"1.84 µM [falling, partial curve]",–
Cc1ccc(C2=NN(S(C)(=O)=O)C(c3ccc4c(c3)OCO4)C2)cc1 (configuration not stated),"18.4 µM [rising, partial curve, poor fit]",–
CCOCCOCCC(C(=O)OCC)P(=O)(c1ccccc1)c1ccccc1 (configuration not stated),"4.11 µM [rising, full curve, poor fit]",–
Cc1ccc2nc(CSc3nc(C)nc4c3oc3ccccc34)[nH]c2c1,"29.1 µM [falling, single point]",–
COc1ccc(NC(=O)N(C)C[C@H]2Oc3ccc(NC(=O)c4ccncc4)cc3C(=O)N([C@H](C)CO)C[C@@H]2C)cc1,"25.9 µM [rising, single point]",–
O=C(/C=C/c1ccccc1)Nc1sc2c(c1C(=O)O)CCC2,"1.41 µM [falling, full curve]",–
O=C(O)c1ccccc1S(=O)(=O)CC(=O)N1CCCCC1,"15.8 µM [rising, single point]",–
C/C(=N\Nc1ccc(Cl)c(C(=O)O)c1)c1cccc([N+](=O)[O-])c1,"10 µM [falling, partial curve]",–
CCOC(=O)C(=CNc1cc(C)nn1-c1ccccc1)C(=O)OCC,"12.6 µM [falling, single point]",–
Cc1ccc(-c2cc(C(=O)N/N=C/C(Br)=C/c3ccccc3)n[nH]2)o1,–,"25.1 µM [falling, single point]"
CC(OC(=O)c1n[nH]c2ccccc12)C(=O)NC1CCCCC1C (configuration not stated),"18.4 µM [falling, partial curve]",–
C=C1C2(C(=O)Nc3ccc(SC(F)F)cc3)CCC(C2)C1(C)C (configuration not stated),"12.6 µM [rising, partial curve]",–
Cc1cc(C)c([N+](=O)[O-])cc1-c1ccc(/C=N/NC(=O)c2nonc2N)o1,"29.1 µM [falling, partial curve, poor fit]",–
Cc1ccc2cc3cc(C(=O)NCc4ccco4)oc3nc2c1,"35.5 µM [falling, single point]",–
CCN(CC)P(=O)(Nc1ccc(SC(F)F)cc1)c1ccc(N(C)C)cc1NC(=O)c1ccco1 (configuration not stated),"8.91 µM [falling, partial curve, poor fit]",–
O=C(NCCSc1c[nH]c2ccccc12)c1c(F)cccc1F,"11.2 µM [falling, single point]",–

Compound,AC50 [1],AC50 [2]
CCC1CCCCN1CCCNC(=O)c1ccc2c(c1)N(Cc1ccc(F)cc1)C(=O)c1ccccc1S2=O (configuration not stated),"17.8 µM [falling, partial curve, poor fit]",–
c1csc(CN2CCN(Cc3cccs3)C2c2cccs2)c1,"1.46 µM [falling, full curve, poor fit]",–
CN(C)c1oc(COc2ccc(F)cc2)nc1C#N,"20.6 µM [rising, single point]",–
S=C(c1ccc(-c2ccccc2Cl)o1)N1CCOCC1,"23.1 µM [rising, partial curve, poor fit]",–
CCn1c(SCC(=O)N2CCCc3ccccc32)nc2c1c(=O)n(C)c(=O)n2C,"12.6 µM [falling, partial curve, poor fit]",–
CC1CN(C(=O)CCCN2C(=O)c3ccccc3C2=O)CC(C)O1 (configuration not stated),"11.2 µM [rising, partial curve, poor fit]",–
CCCc1cc(SCC(=O)Nc2c(C)n(C)n(-c3ccccc3)c2=O)n2c(nc3ccccc32)c1C#N,"4.11 µM [falling, full curve]","5.8 µM [rising, partial curve, poor fit]"
O=c1c2cc3c(=O)n(CC4CCCO4)c(=O)c3cc2c(=O)n1CC1CCCO1 (configuration not stated),"29.1 µM [rising, single point]",–
C#CCn1cc(/C=N/NC(=O)c2cc3ccccc3o2)c2ccccc21,"29.1 µM [falling, single point]",–
COc1ccc(C2C(C(=O)c3ccco3)=C(O)C(=O)N2CCOCCO)cc1OC (configuration not stated),"1.26 µM [falling, full curve]",–
S=C(NNc1ccnc2cc(Cl)ccc12)Nc1ccccc1Cl,"23.1 µM [falling, partial curve]",–
Cc1c(C(=O)O)sc2nc(CSc3nnc(-c4ccc(F)cc4)n3C)[nH]c(=O)c12,"0.794 µM [rising, full curve, poor fit]",–
COc1ccc(C(=O)n2c(N)nc3ccccc32)cc1OC,"12.6 µM [falling, partial curve]",–
COc1ccc(CCNC(=O)COC(=O)/C=C/c2cc(OC)ccc2OC)cc1,"29.1 µM [rising, single point]",–
COC(=O)c1cc(CNC(=O)c2ccccc2OCc2c(C)noc2C)ccc1OC,"17.8 µM [rising, single point]",–
CCNc1nc(NCC)nc(OCCNS(=O)(=O)c2cc(C)ccc2C)n1,"6.51 µM [falling, single point]","4.11 µM [rising, partial curve, poor fit]"
Cc1nn(CCCC(=O)N2CCN(c3ccc(F)cc3)CC2)c(C)c1[N+](=O)[O-],"12.6 µM [falling, partial curve]",–
COc1ccc(S(=O)(=O)N2CCCCC2)cc1NC(=O)c1ccc(OC)c(OC)c1,"2.06 µM [rising, full curve, poor fit]","18.4 µM [falling, partial curve, poor fit]"
CCOC(=O)Nc1ccc2c(c1)Nc1ccccc1S2,"14.1 µM [falling, single point]",–

# Single records (already shown). Values in the order: AC50 [1] | AC50 [2]
# C#CCn1cc(/C=N/NC(=O)c2cc3ccccc3o2)c2ccccc21 in the list: 29.1 µM [falling, single point] | –
# CC1CN(C(=O)CCCN2C(=O)c3ccccc3C2=O)CC(C)O1 (configuration not stated) in the list: 11.2 µM [rising, partial curve, poor fit] | –
